Laboratory results: PubChem BioAssay AID1259254 (NCATS, 2017)
Screen: 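Finding genes that stop cells copying their DNA twice in one cycle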 (primary screen). Cells: human HCT116 colorectal cancer cells. Reagents: single siRNA against human genes. Duration: 3 days. Measurement: 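Nuclei stained with Hoechst and imaged; cell-cycle phase assigned by DNA content; G2 share scaled per plate, non-targeting siRNA 0%, GMNN siRNA 100%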. Reading the numbers: G2 robust z-score and G2 cells, % of GMNN control: higher = more G2 cells, more excess DNA replication. Call rule: 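An siRNA counts as active if its G2 robust z-score lies at least 5 MADs above the screen median; here such calls match roughly 38% of GMNN control or more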.
The deposit covers about 59,000 reagents; below is a random part of them. Over the whole deposit, about 1,550 (2.6%) were called active. 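G2 share is only a proxy for re-replication; each gene was hit by three separate siRNAs, and active genes were retested.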 A number with no mark means an inactive call. The numbers tell different reagents against one gene apart. Further read-outs or replicates are left out here. Not stated in the record: the amount of reagent.

gene symbol	reagent no.	G2 robust z-score	G2 cells, % of GMNN control
C11orf42 (GeneID 160298)	1	-0.865	-3.12
C11orf42 (GeneID 160298)	2	1.08	10.6
C11orf42 (GeneID 160298)	3	-0.237	1.3
AGTRAP (GeneID 57085)	1	-0.00729	2.92
AGTRAP (GeneID 57085)	2	1.29	12
AGTRAP (GeneID 57085)	3	-0.5	-0.55
PTPRK (GeneID 5796)	1	-0.0231	2.8
PTPRK (GeneID 5796)	2	4.25	32.9
PTPRK (GeneID 5796)	3	-1.19	-5.4
TMEM160 (GeneID 54958)	1	0.013	3.06
TMEM160 (GeneID 54958)	2	1.66	14.7
TMEM160 (GeneID 54958)	3	0.65	7.54
HOXB3 (GeneID 3213)	1	0.344	5.39
HOXB3 (GeneID 3213)	2	0.334	5.32
HOXB3 (GeneID 3213)	3	-0.667	-1.72
CTSC (GeneID 1075)	1	3.58	28.2
CTSC (GeneID 1075)	2	-0.806	-2.7
CTSC (GeneID 1075)	3	-0.701	-1.96
GOLGA8J (GeneID 653073)	1	-0.0756	2.44
GOLGA8J (GeneID 653073)	2	1.23	11.7
GOLGA8J (GeneID 653073)	3	0.947	9.63
KATNIP (GeneID 23247)	1	1.67	14.7
KATNIP (GeneID 23247)	2	0.217	4.49
KATNIP (GeneID 23247)	3	-0.747	-2.29
GINS3 (GeneID 64785)	1	-1.35	-6.51
GINS3 (GeneID 64785)	2	1.16	11.1
GINS3 (GeneID 64785)	3	-0.845	-2.98
IL13RA1 (GeneID 3597)	1	3.52	27.7
IL13RA1 (GeneID 3597)	2	-0.244	1.25
IL13RA1 (GeneID 3597)	3	-0.634	-1.5
